# PubChem BioAssay AID493246, Drosophila RNAi Screening Center, 2011
# Aim: 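Genome-wide search for dsRNAs that reduce cell number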 (primary screen)
# System: Drosophila Kc and S2R+ cells
# Reagent: long dsRNA against Drosophila genes
# Measurement: 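Cell number per well after knock-down, printed as raw plate values; calls were based on per-plate z-scores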
# Direction: Kc cell number and S2R+ cell number: higher = more cells remaining
# Call rule: 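Active when the per-plate z-score of cell number is 3 or more in the direction of fewer cells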
# The deposit covers about 21,000 reagents; below is a random part of those with a known target gene and a result. Over the whole deposit, 429 (2%) are marked active. 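Values are raw and not normalised between plates; calls rest on per-plate z-scores that were not deposited.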 Names joined by + are all predicted targets of the reagent. Not given: the amount of reagent, the time to read-out.
target,amplicon,"Kc cell number, rep 1","Kc cell number, rep 2","S2R+ cell number, rep 1","S2R+ cell number, rep 2",Call
CG2187,DRSC15425,1.59e6,1.51e6,9.79e5,1.07e6,inactive
CG33631,DRSC12763,1.33e6,1.51e6,1.06e6,1.19e6,inactive
CAH15 (Carbonic anhydrase 15),DRSC04534,1.50e6,1.67e6,1.42e6,3.16e5,inactive
CG11294,DRSC17777,1.33e6,1.31e6,9.17e5,1.04e6,inactive
sisA,DRSC20374,1.53e6,1.49e6,1.17e6,1.26e6,inactive
CG7519,DRSC11834,1.59e6,1.68e6,1.37e6,1.42e6,inactive
CG31562 (retired record),DRSC12273,1.65e6,2.01e6,1.24e6,1.38e6,inactive
CG31562 (retired record),DRSC12274,1.65e6,1.84e6,1.23e6,1.39e6,inactive
Tdc2 (Tyrosine decarboxylase 2),DRSC04999,1.68e6,1.92e6,1.25e6,1.27e6,inactive
CG4622,DRSC04479,1.31e6,1.40e6,1.19e6,1.25e6,inactive
prod (proliferation disrupter),DRSC07667,1.34e6,1.36e6,1.17e6,1.19e6,inactive
Pif1A (PFTAIRE-interacting factor 1A),DRSC12708,1.38e6,1.40e6,1.10e6,1.30e6,inactive
Pif1A (PFTAIRE-interacting factor 1A),DRSC14383,1.35e6,1.53e6,1.30e6,1.41e6,inactive
Hrb98DE (Heterogeneous nuclear ribonucleoprotein at 98DE),DRSC16709,5.61e5,,8.58e5,,inactive
bur (burgundy),DRSC03163,1.25e6,1.39e6,1.12e6,1.11e6,inactive
tctn + B9d2,DRSC03160,1.74e6,1.79e6,1.26e6,1.46e6,inactive
CG34241,DRSC09157,1.45e6,1.53e6,1.16e6,1.30e6,inactive
RpL40 (Ribosomal protein L40),DRSC00782,1.02e6,1.06e6,7.18e5,8.42e5,active
CycK (Cyclin K),DRSC03714,1.40e6,1.51e6,1.07e6,1.14e6,inactive
Sdhaf3 (Succinate dehydrogenase assembly factor 3),DRSC15020,1.45e6,1.41e6,9.52e5,1.10e6,inactive
AOX2 (Aldehyde oxidase 2),DRSC15338,1.45e6,1.44e6,1.06e6,1.19e6,inactive
alien + CG17906,DRSC02641,1.51e6,1.62e6,1.21e6,1.35e6,inactive
CG15337,DRSC18020,1.59e6,1.59e6,1.01e6,1.16e6,inactive
PEK (pancreatic eIF-2alpha kinase),DRSC12361,1.42e6,1.52e6,1.17e6,1.20e6,inactive
mu2 (mutator 2),DRSC08726,1.49e6,1.48e6,1.21e6,1.22e6,inactive
CG11741,DRSC14367,1.44e6,1.55e6,1.23e6,1.31e6,inactive
Nos (Nitric oxide synthase),DRSC03381,1.27e6,1.34e6,1.10e6,1.10e6,inactive
CG4678,DRSC19911,1.55e6,1.58e6,1.06e6,1.15e6,inactive
CG4678,DRSC19912,1.52e6,1.53e6,1.06e6,1.13e6,inactive
CG44153,DRSC02228,1.47e6,1.45e6,1.32e6,1.33e6,inactive
CG44153,DRSC02229,1.45e6,1.57e6,1.22e6,1.36e6,inactive
CG44153,DRSC02902,1.47e6,1.53e6,1.29e6,1.41e6,inactive
CG44153,DRSC02903,1.56e6,1.69e6,1.20e6,1.40e6,inactive
COX1 (retired record),DRSC21275,1.53e6,1.57e6,1.11e6,1.25e6,inactive
14-3-3zeta,DRSC05028,1.38e6,1.42e6,1.09e6,1.09e6,inactive
Tep1 (Thioester-containing protein 1),DRSC03450,1.57e6,1.65e6,1.25e6,1.38e6,inactive
Sting,DRSC06615,1.77e6,1.79e6,1.44e6,1.66e6,inactive
Pgant1 (Polypeptide N-Acetylgalactosaminyltransferase 1),DRSC07095,1.75e6,1.73e6,1.32e6,1.54e6,inactive
CG42346,DRSC20622,1.53e6,1.60e6,1.09e6,1.19e6,inactive
CG42346,DRSC20644,1.65e6,1.66e6,1.09e6,1.22e6,inactive
CG12546,DRSC11676,1.45e6,1.44e6,1.12e6,1.28e6,inactive
CG13607,DRSC14610,1.64e6,1.85e6,1.05e6,1.15e6,inactive
Polr1C (RNA polymerase I and III subunit C),DRSC02719,1.31e6,1.36e6,6.56e5,6.75e5,inactive
Irp-1B (Iron regulatory protein 1B),DRSC16720,1.48e6,1.50e6,1.30e6,1.33e6,inactive
Drep2 (DNA fragmentation factor-related protein 2),DRSC07528,1.32e6,1.40e6,1.01e6,1.07e6,inactive
EndoB (Endophilin B),DRSC07345,1.46e6,1.56e6,9.56e5,1.17e6,inactive
CG14564,DRSC11725,1.34e6,1.33e6,1.30e6,1.38e6,inactive
CG11029,DRSC02119,1.45e6,1.36e6,1.11e6,1.31e6,inactive
CG15579,DRSC18067,1.50e6,1.47e6,1.03e6,1.12e6,inactive
Ac76E (Adenylyl cyclase 76E),DRSC09642,1.44e6,1.52e6,1.15e6,1.30e6,inactive
Ac76E (Adenylyl cyclase 76E),DRSC09662,1.54e6,1.57e6,1.22e6,1.26e6,inactive
l(2)k05819 (lethal (2) k05819),DRSC00826,1.32e6,1.31e6,9.57e5,1.01e6,inactive
CG31371,DRSC15079,1.46e6,1.47e6,9.99e5,1.06e6,inactive
CG10467,DRSC09728,1.51e6,1.25e6,1.08e6,1.20e6,inactive
CG14333 (retired record),DRSC14812,1.23e6,1.32e6,1.13e6,1.24e6,inactive
CG14333 (retired record),DRSC15769,1.50e6,1.57e6,1.14e6,1.23e6,inactive
CG42457 (retired record) + cpo,DRSC13273,1.22e6,1.31e6,9.77e5,1.03e6,inactive
CG42457 (retired record) + cpo,DRSC14503,1.07e6,9.49e5,5.50e5,6.34e5,active
CG42457 (retired record) + cpo,DRSC15327,8.17e5,8.21e5,4.94e5,5.42e5,active
CG42457 (retired record) + cpo,DRSC16926,1.36e6,1.22e6,5.27e5,5.45e5,active
